Results published in the supplement of paper PMC11006884.
Most of the targets with a hit are listed elsewhere, so they are rarer here than in the full data. The data scatter; read single values as rough. Only a part is listed here, and it is no random draw.

Amino acid sequences for entries named in this document (tags omitted). A change or cut given only in a name is not applied to a line headed by its entry.
UniProt Q8N6R0: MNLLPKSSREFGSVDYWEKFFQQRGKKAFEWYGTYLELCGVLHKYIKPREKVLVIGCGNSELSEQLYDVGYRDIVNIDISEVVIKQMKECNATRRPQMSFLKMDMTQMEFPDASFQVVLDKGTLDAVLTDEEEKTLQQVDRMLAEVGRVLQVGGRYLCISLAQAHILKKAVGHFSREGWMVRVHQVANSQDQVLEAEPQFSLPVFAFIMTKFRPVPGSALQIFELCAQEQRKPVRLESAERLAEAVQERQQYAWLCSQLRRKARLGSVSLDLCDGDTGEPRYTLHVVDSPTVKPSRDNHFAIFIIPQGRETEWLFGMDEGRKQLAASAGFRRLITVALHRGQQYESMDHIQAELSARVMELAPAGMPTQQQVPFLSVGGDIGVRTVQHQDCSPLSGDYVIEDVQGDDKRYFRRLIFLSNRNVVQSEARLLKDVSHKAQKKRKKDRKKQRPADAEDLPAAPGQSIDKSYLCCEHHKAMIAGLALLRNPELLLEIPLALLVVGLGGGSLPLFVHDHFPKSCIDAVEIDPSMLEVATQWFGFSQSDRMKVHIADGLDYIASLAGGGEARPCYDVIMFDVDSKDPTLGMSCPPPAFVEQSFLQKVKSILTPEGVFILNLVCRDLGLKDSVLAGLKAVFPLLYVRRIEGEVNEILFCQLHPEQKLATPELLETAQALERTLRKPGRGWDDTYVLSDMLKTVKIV
UniProt Q8N163, whole entry, looked up: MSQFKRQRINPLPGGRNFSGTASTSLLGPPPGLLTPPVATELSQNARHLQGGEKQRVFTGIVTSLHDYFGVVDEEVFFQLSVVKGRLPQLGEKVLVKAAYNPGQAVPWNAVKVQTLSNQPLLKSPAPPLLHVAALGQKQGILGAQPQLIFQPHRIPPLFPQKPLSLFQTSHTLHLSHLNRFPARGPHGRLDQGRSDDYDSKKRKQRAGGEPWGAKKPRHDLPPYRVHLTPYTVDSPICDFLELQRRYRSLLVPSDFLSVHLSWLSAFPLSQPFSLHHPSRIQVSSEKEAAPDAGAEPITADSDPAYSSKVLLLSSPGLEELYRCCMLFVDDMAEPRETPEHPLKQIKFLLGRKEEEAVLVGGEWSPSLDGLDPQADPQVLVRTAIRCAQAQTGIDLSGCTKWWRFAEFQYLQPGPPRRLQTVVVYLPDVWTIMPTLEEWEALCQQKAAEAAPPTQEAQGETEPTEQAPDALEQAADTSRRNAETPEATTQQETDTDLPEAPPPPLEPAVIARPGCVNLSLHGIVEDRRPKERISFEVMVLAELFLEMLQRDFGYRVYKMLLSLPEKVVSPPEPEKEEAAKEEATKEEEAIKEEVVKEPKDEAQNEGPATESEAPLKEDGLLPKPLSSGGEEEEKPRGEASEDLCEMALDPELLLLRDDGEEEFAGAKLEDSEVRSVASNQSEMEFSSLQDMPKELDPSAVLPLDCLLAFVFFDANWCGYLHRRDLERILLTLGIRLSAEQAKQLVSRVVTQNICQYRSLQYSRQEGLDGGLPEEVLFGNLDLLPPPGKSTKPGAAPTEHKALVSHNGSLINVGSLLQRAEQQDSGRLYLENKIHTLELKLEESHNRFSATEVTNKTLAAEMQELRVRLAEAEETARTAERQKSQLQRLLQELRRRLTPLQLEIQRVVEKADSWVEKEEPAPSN
UniProt Q8WUM4: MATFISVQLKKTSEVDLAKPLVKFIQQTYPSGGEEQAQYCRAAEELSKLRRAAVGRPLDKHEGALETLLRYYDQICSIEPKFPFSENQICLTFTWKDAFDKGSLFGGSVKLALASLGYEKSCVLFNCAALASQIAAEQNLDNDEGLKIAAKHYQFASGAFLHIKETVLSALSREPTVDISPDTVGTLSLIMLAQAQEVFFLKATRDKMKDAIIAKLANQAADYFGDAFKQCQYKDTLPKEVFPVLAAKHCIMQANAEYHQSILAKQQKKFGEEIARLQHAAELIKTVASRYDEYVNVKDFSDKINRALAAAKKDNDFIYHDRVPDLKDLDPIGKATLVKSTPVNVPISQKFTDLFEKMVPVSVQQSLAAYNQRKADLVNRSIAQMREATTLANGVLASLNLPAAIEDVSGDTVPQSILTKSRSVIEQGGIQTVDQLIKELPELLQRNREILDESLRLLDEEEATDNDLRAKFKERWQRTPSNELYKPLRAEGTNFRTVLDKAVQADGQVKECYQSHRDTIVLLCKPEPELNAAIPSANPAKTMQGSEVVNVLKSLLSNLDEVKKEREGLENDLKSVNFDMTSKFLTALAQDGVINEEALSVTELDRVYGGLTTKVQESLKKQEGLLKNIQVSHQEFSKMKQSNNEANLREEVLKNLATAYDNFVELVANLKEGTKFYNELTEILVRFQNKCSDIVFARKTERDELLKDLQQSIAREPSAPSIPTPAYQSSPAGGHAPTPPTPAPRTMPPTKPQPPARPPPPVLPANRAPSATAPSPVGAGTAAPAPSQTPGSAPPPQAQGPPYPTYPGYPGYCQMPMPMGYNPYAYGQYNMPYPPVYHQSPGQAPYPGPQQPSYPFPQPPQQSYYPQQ
UniProt Q8NC51: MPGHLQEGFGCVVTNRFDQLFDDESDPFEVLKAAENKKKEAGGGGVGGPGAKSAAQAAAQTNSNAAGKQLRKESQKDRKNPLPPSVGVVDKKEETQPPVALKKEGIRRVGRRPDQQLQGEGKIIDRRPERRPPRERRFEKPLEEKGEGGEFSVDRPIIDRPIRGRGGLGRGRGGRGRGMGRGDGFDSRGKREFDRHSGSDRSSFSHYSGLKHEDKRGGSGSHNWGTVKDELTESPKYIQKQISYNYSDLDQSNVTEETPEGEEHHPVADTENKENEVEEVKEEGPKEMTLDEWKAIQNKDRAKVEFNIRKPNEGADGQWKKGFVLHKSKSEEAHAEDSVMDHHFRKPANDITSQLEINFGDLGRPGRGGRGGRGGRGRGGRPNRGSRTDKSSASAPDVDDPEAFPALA
UniProt Q8NDH3: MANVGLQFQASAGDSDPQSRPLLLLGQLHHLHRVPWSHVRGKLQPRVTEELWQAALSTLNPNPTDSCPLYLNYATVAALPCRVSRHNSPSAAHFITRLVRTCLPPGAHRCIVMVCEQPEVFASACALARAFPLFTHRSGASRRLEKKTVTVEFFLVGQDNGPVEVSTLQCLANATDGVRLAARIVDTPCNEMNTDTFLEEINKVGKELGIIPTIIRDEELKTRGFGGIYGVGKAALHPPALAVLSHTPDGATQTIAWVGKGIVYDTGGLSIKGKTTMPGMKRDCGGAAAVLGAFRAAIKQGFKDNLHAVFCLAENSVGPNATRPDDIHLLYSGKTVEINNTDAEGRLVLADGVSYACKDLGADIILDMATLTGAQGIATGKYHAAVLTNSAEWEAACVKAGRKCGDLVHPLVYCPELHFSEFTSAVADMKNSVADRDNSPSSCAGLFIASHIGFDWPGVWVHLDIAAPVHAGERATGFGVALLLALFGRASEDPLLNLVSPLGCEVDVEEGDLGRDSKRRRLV
UniProt Q8WWZ3: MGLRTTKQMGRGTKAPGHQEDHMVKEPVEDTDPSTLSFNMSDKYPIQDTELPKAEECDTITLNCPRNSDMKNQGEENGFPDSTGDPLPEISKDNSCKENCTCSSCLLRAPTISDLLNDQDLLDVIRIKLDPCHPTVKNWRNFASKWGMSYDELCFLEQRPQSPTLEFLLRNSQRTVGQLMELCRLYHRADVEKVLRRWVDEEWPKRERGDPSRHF
UniProt Q8TF05: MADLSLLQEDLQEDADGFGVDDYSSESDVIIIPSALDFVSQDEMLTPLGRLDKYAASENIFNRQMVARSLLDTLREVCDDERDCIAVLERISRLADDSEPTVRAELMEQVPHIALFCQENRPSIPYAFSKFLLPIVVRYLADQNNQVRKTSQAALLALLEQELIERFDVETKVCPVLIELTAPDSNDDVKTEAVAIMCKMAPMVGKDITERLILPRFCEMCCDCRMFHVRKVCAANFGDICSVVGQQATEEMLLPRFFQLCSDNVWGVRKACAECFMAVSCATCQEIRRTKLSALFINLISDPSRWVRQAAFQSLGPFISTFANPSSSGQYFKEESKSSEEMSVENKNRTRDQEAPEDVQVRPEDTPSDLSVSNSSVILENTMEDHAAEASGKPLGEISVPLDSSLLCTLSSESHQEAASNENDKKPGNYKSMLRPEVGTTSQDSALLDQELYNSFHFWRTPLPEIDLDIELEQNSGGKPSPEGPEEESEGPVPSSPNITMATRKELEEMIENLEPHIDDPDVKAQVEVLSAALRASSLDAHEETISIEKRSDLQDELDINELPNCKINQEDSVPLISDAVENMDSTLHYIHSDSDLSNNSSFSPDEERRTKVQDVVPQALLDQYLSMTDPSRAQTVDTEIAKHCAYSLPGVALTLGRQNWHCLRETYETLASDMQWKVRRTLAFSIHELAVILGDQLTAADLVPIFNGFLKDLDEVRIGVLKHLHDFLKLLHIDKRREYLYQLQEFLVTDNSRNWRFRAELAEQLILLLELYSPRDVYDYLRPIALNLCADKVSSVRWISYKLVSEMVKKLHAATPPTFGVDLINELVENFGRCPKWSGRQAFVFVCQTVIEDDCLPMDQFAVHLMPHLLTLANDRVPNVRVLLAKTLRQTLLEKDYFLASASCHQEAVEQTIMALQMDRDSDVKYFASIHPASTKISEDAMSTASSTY
UniProt Q8N3R9: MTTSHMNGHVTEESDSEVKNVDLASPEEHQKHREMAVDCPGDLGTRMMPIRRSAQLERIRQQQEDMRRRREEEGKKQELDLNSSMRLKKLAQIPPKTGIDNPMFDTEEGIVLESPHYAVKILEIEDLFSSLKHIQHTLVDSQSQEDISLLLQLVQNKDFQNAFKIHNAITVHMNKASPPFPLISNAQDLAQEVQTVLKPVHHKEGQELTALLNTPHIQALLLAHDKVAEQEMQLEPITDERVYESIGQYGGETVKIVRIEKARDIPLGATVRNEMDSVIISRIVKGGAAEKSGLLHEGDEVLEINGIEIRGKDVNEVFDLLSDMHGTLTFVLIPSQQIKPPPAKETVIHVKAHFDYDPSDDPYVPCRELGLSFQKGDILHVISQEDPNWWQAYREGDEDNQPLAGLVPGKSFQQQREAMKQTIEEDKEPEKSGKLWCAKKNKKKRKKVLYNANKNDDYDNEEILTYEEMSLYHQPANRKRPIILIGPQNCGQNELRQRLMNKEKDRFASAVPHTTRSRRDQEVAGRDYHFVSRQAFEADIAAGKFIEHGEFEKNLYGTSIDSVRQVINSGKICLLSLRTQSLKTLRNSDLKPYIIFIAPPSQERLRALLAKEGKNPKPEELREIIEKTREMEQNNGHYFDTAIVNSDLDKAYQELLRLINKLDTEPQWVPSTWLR
UniProt Q8WU90: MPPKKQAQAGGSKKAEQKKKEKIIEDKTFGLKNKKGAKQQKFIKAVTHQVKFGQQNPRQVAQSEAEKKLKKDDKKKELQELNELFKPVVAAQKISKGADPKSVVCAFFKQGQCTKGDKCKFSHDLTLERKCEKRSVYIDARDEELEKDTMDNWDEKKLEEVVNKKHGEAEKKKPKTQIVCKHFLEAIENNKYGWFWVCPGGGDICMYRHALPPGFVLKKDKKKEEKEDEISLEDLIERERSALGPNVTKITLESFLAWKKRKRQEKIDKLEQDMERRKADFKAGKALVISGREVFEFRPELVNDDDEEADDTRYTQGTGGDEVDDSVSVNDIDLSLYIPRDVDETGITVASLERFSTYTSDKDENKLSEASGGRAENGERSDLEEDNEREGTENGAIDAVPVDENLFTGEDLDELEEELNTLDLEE
UniProt Q8NFF5: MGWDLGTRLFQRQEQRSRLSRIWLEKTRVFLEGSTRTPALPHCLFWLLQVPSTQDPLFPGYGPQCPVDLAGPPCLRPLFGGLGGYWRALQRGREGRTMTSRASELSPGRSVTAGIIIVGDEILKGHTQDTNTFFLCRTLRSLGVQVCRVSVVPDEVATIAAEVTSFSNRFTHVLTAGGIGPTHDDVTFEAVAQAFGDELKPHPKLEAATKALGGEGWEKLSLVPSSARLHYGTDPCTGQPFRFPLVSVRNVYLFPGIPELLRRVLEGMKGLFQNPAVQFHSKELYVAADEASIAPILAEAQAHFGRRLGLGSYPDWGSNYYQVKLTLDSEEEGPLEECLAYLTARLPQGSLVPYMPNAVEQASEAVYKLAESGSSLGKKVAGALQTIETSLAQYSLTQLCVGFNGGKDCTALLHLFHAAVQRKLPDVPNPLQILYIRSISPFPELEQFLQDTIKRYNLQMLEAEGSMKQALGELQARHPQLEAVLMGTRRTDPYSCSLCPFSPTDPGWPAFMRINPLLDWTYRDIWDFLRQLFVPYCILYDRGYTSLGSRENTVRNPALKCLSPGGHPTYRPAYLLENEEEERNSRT

The targets below were run with COC(=O)/C=C/c1ccccc1 [methyl cinnamate] (assay: log2 ratio of iodoacetamide-alkyne labeling of the cysteine site, DMSO over compound (competition); higher = stronger covalent engagement of the cysteine by the compound, active = 1 or more). Details: 500 µM; treatment time 1 h; system: HEK293T cell lysate.
In short: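 Three replicates, each with duplicate channels, were prepared from HEK293T lysate (2 mg/mL) treated with vehicle or electrophile at 500 µM for 1 h at ambient temperature. Iodoacetamide alkyne was then applied for 1 h, and samples were clicked to sCIP-TMT reagents, pooled, trypsin-digested overnight at 37 °C, enriched on streptavidin, acid-eluted and analysed on Orbitrap Eclipse LC-MS/MS with FAIMS, with FragPipe quantification. The log2 competition ratio per cysteine is the mean control-channel divided by the mean compound-channel reporter intensity. Cysteines quantified in only one replicate were left out.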

log2 ratio of iodoacetamide-alkyne labeling, inactive:
UniProt Q8N6R0_C226 -0.0468
UniProt Q8N163_C324 0.0428
PDCD6IP C40 (UniProt Q8WUM4) 0.374
PHIP C954 (UniProt Q8WWQ0) 0.202
SERBP1 C11 (UniProt Q8NC51) 0.291
NPEPL1 C504 (UniProt Q8NDH3) -0.024
UniProt Q8NFC6_C1554 -0.0064
EDARADD C154 (UniProt Q8WWZ3) -0.134
PPP4R1 C566 (UniProt Q8TF05) 0.292
MPP5 C366 (UniProt Q8N3R9) 0.216
THOC2 C743 (UniProt Q8NI27) -0.091
ZC3H15 C105 (UniProt Q8WU90) 0.388
UniProt Q8NEB9_C336 0.14
FLAD1 C499 (UniProt Q8NFF5) 0.105
UniProt Q8NFC6_C1170 0.164

Quoted from above (two entries):
log2 ratio of iodoacetamide-alkyne labeling, inactive:
UniProt Q8N163_C324 0.0428
PDCD6IP C40 (UniProt Q8WUM4) 0.374
